Data from article PMC10576120.
Numbering of substitutions follows the chain as printed. No constants are given. Whether binding was seen depends on the method and setting. In cells and extracts the contact can be indirect. A result given as binding can be weak or reduced; the word gives no strength.

Tests used:
Test in all cases: cross-linking; in vivo disulfide cross-linking in E. coli coexpressing a PhoQ Cys variant (pBAD33) and a FLAG-MgrB Cys variant (pTrc99A); 0.1 mM Cu-phenanthroline, 10 min, 25 °C, buffer with 1 mM MgSO4; membrane fraction, Western blot with anti-FLAG; efficiency = complex / (complex + MgrB monomer)
[1] = biological target: T1, PhoQ 194C (E. coli) (UniProt P23837)
T1 sequence: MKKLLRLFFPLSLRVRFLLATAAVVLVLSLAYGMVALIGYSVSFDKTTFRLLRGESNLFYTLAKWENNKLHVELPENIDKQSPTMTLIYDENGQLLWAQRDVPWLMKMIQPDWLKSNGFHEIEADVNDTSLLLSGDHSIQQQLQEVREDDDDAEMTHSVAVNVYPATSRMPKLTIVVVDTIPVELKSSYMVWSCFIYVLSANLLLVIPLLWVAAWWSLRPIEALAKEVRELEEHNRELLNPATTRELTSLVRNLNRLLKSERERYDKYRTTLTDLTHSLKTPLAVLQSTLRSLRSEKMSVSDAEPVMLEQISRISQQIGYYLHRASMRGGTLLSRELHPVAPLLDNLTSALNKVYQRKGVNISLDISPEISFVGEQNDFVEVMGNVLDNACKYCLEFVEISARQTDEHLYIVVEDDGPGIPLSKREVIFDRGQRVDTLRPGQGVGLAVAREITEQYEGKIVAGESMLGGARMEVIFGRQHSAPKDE

[2] = biological target: T2, PhoQ 196C (E. coli) (UniProt P23837)
T2 sequence: T1 sequence with C194W, I196C

[3] = biological target: T3, PhoQ 198C (E. coli) (UniProt P23837)
T3 sequence: T1 sequence with C194W, V198C

[4] = biological target: T4, PhoQ Y197C (E. coli) (UniProt P23837)
T4 sequence: T1 sequence with C194W, Y197C

[5] = biological target: T5, PhoQ linker Cys variant, position 186 (E. coli) (UniProt P23837)
T5 sequence: T1 sequence with K186C, C194W

[6] = biological target: T6, PhoQ linker Cys variant, position 185 (E. coli) (UniProt P23837)
T6 sequence: T1 sequence with L185C, C194W

[7] = biological target: T7, PhoQ linker Cys variant, position 188 (E. coli) (UniProt P23837)
T7 sequence: T1 sequence with S188C, C194W

[8] = biological target: T8, PhoQ linker Cys variant, position 187 (E. coli) (UniProt P23837)
T8 sequence: T1 sequence with S187C, C194W

[9] = biological target: T9, PhoQ linker Cys variant, position 184 (E. coli) (UniProt P23837)
T9 sequence: T1 sequence with E184C, C194W

Measured: binding

FLAG-tagged MgrB Q22C (from UniProt P64512)
binds: [1] | [2] | [3] | [4]

FLAG-tagged MgrB D31C (from UniProt P64512)
binds: [5] | [6] | [7] | [8] | [9]
